Reference: patent US20090098054A1
No constants are given. Whether binding was seen depends on the method and setting. Binding seen in cells or lysates may run through a third protein. Some entries that bind do so weakly or less than the wild type.

The chains behind the UniProt entries cited, without tags or fusion partners. Where a name states a change or a piece, a line headed by the entry shows the natural chain unless it says otherwise.
UniProt P15941: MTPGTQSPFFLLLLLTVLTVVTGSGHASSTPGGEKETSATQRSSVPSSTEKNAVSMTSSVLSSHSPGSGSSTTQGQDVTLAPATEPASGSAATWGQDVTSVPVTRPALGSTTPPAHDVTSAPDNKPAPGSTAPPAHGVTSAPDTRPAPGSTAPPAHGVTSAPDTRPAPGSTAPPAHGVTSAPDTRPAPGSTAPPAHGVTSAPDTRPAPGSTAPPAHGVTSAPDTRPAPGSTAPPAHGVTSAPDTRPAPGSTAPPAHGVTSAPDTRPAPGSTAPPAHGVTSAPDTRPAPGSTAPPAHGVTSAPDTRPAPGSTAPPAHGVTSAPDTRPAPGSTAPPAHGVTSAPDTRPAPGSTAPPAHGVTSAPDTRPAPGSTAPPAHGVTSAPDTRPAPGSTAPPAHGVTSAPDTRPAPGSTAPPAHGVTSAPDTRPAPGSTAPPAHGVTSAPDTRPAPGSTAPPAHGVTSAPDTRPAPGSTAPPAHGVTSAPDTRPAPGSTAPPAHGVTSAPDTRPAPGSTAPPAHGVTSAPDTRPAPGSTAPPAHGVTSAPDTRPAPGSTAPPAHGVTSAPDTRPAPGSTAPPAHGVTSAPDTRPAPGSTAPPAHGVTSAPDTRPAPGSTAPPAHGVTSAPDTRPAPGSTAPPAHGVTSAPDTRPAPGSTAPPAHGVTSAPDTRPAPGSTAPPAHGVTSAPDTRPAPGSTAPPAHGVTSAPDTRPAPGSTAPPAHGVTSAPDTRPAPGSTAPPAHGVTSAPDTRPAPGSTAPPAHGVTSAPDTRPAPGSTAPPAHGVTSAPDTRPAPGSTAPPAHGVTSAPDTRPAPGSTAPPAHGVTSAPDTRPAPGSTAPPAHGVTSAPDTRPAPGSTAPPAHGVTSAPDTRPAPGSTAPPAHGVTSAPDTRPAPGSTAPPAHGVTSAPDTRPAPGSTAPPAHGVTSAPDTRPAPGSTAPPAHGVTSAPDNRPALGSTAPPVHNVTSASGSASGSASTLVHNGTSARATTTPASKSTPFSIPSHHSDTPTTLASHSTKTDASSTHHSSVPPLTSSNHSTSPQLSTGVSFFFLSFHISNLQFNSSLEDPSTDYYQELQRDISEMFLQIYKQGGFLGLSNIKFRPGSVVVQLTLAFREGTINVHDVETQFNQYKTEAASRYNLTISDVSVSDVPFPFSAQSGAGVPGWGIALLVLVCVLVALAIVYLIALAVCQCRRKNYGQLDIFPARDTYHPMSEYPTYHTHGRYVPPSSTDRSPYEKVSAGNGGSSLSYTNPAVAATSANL
UniProt O43474: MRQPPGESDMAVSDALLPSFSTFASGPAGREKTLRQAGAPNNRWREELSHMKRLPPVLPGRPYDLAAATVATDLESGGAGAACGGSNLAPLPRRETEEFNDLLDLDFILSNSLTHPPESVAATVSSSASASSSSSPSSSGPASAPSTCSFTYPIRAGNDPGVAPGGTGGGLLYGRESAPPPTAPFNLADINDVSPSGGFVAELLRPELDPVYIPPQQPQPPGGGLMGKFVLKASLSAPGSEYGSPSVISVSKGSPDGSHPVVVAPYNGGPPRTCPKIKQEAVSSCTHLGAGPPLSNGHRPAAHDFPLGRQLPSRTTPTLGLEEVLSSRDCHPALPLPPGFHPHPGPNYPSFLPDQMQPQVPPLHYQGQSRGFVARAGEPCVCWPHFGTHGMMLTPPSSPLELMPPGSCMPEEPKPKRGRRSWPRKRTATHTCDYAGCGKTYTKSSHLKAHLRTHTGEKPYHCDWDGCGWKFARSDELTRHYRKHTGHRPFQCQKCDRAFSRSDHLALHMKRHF

Target: GST-MUC1-CD(1-72) (human) (UniProt P15941)
Assay: GST pull-down on glutathione beads, [35S]-labeled KLF4, autoradiography

[35S]-labeled KLF4 protein (from UniProt O43474 10-513)
binding: binds
